The values that follow come from publication doi:10.1101/2025.03.09.642258.

Amino acid sequences for entries named in this document (tags omitted).
UniProt O60506: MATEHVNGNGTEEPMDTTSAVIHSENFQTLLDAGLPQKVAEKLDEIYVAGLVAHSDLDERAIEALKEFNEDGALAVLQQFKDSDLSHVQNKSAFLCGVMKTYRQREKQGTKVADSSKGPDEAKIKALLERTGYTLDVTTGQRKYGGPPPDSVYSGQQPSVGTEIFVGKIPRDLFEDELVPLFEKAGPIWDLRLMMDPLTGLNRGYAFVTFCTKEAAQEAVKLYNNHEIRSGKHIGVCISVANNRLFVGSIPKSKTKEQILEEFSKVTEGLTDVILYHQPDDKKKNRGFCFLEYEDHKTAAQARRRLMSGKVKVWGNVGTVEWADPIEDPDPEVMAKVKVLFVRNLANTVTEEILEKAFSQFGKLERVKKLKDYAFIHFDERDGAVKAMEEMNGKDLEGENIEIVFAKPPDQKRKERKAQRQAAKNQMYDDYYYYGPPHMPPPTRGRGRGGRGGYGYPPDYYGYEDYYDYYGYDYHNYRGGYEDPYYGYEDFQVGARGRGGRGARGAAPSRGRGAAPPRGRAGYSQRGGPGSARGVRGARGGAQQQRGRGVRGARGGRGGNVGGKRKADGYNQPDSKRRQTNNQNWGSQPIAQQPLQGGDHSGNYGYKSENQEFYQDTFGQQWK
UniProt P67809: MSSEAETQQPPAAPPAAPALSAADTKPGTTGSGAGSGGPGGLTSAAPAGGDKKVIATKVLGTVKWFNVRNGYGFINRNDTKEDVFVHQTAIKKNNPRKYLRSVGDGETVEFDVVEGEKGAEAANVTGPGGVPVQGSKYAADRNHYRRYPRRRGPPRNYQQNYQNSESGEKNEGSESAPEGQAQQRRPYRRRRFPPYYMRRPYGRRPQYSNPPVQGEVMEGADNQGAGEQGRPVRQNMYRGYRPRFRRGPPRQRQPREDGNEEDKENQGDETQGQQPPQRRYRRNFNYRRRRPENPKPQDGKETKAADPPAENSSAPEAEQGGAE

This test has as its target T1, Non-POU domain containing octamer binding (NONO) protein (human (endogenous in U2OS)) (UniProt Q15233).
T1 sequence: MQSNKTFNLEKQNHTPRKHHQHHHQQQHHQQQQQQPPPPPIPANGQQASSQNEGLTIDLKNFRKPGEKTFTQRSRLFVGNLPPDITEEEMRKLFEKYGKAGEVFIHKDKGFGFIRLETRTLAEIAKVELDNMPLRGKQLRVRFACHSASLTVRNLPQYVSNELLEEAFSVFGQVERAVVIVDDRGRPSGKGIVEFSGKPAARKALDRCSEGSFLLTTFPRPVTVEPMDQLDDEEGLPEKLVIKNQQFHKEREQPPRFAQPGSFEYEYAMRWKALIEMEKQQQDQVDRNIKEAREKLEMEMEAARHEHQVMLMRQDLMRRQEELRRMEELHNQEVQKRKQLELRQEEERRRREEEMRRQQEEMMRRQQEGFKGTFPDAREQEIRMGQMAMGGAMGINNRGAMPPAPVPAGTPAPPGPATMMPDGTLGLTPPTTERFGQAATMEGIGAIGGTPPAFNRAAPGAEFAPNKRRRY
Description: affinity purification with mass spectrometry.

Results are given in words; binding and its absence hold for the method and conditions named. In cells and extracts the contact can be indirect. These calls come from enrichment with a bait or labelling near it, and not all partners need be listed.

Take SYNCRIP (from UniProt O60506 1-623): the binding entry is reported as “binds”.
Turning to YBX1 (from UniProt P67809 1-324), the binding result is “binds”.
